Experimental data from patent publication US11866518B2, “Bicyclic peptide ligands specific for TSLP” (BicycleTx Limited, priority 2020, dated 2024).
Part of at least one peptide drawing is inferred or uncertain, most often the ends.

The chains behind the UniProt entries cited, without tags or fusion partners. Residues count along the entry.
UniProt Q969D9, 29-159: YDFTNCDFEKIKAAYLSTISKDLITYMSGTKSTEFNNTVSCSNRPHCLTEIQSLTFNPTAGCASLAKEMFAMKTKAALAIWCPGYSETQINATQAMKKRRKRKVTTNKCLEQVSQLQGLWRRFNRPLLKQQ

Target: TSLP (Homo sapiens, UniProt Q969D9)
Experiment: Human TSLP Surface Plasmon Resonance (SPR) binding assay
Set-up: The resulting construct spCD33-6×HN-TEV-hTSLP(29-159)-Avi; 6xHN tag with TEV site (N, cleaved yes); made in house; host or cells: Expi293F cells
Details: biotinylated human TSLP immobilized on streptavidin chip; 20° C.; steady-state or kinetic 1:1 fit; read-out: hTSLP SPR Kd

CC(=O)N[C@H]1CSCCC(=O)N2CN3CN(C2)C(=O)CCSC[C@H](NC(=O)[C@H](CC(=O)O)NC(=O)[C@H](CCC(=O)O)NC(=O)[C@H](CC(C)C)NC(=O)[C@H](Cc2c[nH]c4ccccc24)NC(=O)[C@H](CCC(N)=O)NC1=O)C(=O)N[C@@H](Cc1c[nH]c2ccccc12)C(=O)N[C@@H](CCCNC(=N)N)C(=O)NCC(=O)N[C@@H](Cc1ccc(F)c(F)c1)C(=O)N[C@H](C(N)=O)CSCCC3=O [Example 22, Ac-(SEQ ID NO: 20)]
Kd: 9.7 nM
